# Test results taken from PubChem BioAssay (EPA / NIEHS).
# Protein sequences, listed by entry. Tags and fused reporters are not part of them. Lines headed by an entry give the natural chain unless they say otherwise; changes in a name come on top.
# UniProt P49884, whole entry, looked up: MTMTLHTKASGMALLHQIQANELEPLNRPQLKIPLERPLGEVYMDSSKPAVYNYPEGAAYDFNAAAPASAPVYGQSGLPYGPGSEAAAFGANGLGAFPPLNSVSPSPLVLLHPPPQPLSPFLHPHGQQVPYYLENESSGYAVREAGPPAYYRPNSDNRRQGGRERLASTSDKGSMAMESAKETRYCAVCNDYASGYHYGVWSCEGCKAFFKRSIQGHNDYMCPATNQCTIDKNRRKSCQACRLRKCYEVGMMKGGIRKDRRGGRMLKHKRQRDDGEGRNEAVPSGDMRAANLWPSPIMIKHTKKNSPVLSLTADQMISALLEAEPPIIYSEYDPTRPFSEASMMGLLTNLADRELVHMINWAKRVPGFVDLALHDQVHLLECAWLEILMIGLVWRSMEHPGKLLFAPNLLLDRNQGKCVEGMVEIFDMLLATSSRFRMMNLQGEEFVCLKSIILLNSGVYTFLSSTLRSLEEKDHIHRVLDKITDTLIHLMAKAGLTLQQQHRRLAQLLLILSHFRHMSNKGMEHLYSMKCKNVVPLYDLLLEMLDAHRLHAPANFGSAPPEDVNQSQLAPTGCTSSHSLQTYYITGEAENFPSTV
# UniProt P03372, whole entry, looked up: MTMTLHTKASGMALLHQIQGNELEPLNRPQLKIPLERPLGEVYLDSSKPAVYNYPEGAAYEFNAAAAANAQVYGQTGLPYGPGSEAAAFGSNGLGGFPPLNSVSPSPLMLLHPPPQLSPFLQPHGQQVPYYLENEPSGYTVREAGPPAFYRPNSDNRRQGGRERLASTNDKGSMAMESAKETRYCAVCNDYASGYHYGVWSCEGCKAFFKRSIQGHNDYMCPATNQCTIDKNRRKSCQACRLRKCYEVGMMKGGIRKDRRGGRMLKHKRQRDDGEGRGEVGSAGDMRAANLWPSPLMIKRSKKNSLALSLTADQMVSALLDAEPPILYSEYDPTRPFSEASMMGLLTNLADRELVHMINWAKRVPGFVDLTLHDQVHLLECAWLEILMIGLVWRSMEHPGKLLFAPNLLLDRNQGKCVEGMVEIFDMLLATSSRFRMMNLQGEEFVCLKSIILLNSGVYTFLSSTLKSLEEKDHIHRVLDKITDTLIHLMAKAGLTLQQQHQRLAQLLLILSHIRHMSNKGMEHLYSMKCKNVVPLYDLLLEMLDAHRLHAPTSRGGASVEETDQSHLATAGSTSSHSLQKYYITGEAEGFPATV
# UniProt Q14994: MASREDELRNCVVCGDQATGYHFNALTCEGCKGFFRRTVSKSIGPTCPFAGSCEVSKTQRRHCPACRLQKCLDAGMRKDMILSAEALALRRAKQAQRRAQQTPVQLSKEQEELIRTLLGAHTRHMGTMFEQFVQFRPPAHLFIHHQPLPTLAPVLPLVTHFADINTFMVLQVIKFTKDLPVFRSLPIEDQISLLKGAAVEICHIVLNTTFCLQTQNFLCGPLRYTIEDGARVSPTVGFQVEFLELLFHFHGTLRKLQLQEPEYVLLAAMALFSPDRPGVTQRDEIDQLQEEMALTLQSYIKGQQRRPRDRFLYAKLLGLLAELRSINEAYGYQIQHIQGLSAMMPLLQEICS
# UniProt Q92731, whole entry, looked up: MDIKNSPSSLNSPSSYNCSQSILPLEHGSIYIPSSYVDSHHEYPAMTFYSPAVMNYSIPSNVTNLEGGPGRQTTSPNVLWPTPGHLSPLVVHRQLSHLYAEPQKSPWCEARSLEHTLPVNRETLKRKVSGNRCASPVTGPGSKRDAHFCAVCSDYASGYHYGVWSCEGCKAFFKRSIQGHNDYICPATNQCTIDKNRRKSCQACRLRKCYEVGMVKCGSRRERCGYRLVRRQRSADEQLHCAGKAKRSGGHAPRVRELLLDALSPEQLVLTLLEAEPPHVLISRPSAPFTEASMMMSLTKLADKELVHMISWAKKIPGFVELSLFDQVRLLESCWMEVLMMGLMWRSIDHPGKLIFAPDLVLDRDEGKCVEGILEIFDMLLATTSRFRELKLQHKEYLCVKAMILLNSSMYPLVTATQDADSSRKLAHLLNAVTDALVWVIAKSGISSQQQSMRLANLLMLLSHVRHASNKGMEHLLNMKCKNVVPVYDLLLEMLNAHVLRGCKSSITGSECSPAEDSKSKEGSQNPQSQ
# Inconclusive means that the source gave no clear call. Such entries were picked first, then a sample of the others. Potencies beside an inconclusive call are fits to weak or partial responses and may not hold up. Calls of active or inactive are those of the source. How the source made its calls: active means hit-call score of the fitted dose curve at least 0.9, where 1 is the maximum; inconclusive means response in the unintended direction; inactive means score below 0.9.
# How the values were obtained:
# NCBI gene 100848466 = assay: NVS_NR_bPR: NovaScreen (NVS) Nuclear Receptor Binding Assay for bovine Progextron Receptor (PR) (AID 2283343);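 on AC50: actives lower bound radioligand signal below DMSO meaning displacement of the label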
# In short: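 Bovine uterine membrane preparation, cell-free; radioligand competitive displacement measured by scintillation counting 18 hours after dosing. Loss of signal versus DMSO baseline indicates binding; primary HTS single concentration 25 uM in duplicate, actives followed in concentration series.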
# [1] = molecular target: bovine Estrogen Receptor (ER), ESR1 (gene 407238) (UniProt P49884); assay: NVS_NR_bER: NovaScreen (NVS) Nuclear Receptor Binding Assay for bovine Estrogen Receptor (ER) (AID 2283345);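 further: actives lower the bound radioligand count which means they displace the ER ligand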
# In short: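 Displacement of a radioligand from estrogen receptor in bovine uterine membrane preparations; scintillation signal taken at 18 hours, DMSO as baseline. Single-concentration duplicates (25 uM) preceded concentration-response follow-up of actives.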
# [2] = molecular target: Estrogen receptor (Homo sapiens) (UniProt P03372); assay: NVS_NR_hER: NovaScreen (NVS) Nuclear Receptor Binding Assay for human Estrogen Receptor (ER) (AID 2283348)
# In short: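 Cell-free radioligand binding with protein extracted from MCF7 cells; scintillation counting 18 hours after dosing. Loss of signal versus DMSO baseline read as displacement; primary single-concentration screen at 25 uM in duplicate, actives retested in concentration series.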
# [3] = molecular target: human Constitutive Androstane Receptor (CAR), NR1I3 (gene 9970) (UniProt Q14994); assay: NVS_NR_hCAR_Antagonist: NovaScreen (NVS) Nuclear Receptor Binding Assay for human Constitutive Androstane Receptor Antagonism (CAR) (AID 2283344)
# In short: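 Cell-free TR-FRET binding read 1 h after dosing, antagonist mode; loss of signal versus DMSO baseline. Primary screen in duplicate at a single 25 uM; actives retested in concentration series.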
# [4] = molecular target: Estrogen receptor (Homo sapiens) + Estrogen receptor beta (Homo sapiens) (UniProt P03372+Q92731); assay: OT_ER_ERaERb_0480: Odyssey Thera (OT) 8-hour HEK293T Protein-Complementation Assay for Estrogen Receptor-alpha/-beta Heterodimer (AID 2283352)
# In short: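 Fluorescence intensity readout from a protein-fragment complementation reporter in HEK293T; ER-alpha/ER-beta LBD heterodimer. Dosing 8 h. Gain-of-signal fit relative to DMSO negative control; laser scanning cytometry of whole-well cell population.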
# [5] = molecular target: Estrogen receptor (Homo sapiens) (UniProt P03372); assay: OT_ER_ERaERa_0480: Odyssey Thera (OT) 8-hour HEK293T Protein-Complementation Assay for Estrogen Receptor-alpha/-alpha Homodimer (AID 2283351);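 further: rise in fluorescence from reassembled reporter fragments on ERα LBD homodimer in nucleus or whole cell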
# In short: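 HEK293T, stable ERα LBD (aa 310-547) PCA homodimer; 8 h compound exposure; fluorescence intensity, laser scanning cytometer; positive fitting direction, DMSO baseline.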
smiles,measurement,setting,value
COP(=S)(OC)SCn1nnc2ccccc2c1=O,AC50,NCBI gene 100848466,inconclusive: 1.78 µM
same,AC50,[1],inconclusive: 25 µM
same,AC50,[2],inconclusive: 25 µM
C#CCN1C(=O)COc2cc(F)c(N3C(=O)C4=C(CCCC4)C3=O)cc21,AC50,[3],inconclusive: 0.0694 µM
same,AC50,[4],inconclusive: 50 µM
CC1(C(=O)Nc2ccc(O)c(Cl)c2Cl)CCCCC1,AC50,NCBI gene 100848466,inconclusive: 0.166 µM
CN/C(=N\[N+](=O)[O-])NCc1cnc(Cl)s1,AC50,[3],inconclusive: 25 µM
CC1(C)C(C=C(Cl)Cl)C1C(=O)OC(C#N)c1ccc(F)c(Oc2ccccc2)c1 (stereo unspecified),outcome,NCBI gene 100848466,inactive
same,outcome,[3],inactive
same,outcome,[1],inactive
same,outcome,[2],inactive
same,AC50,[5],inconclusive: 50 µM
CCOC(=O)C(C)OC(=O)c1cc(Oc2ccc(C(F)(F)F)cc2Cl)ccc1[N+](=O)[O-] (stereo unspecified),AC50,NCBI gene 100848466,inconclusive: 25 µM
same,outcome,[3],inactive
same,AC50,[2],inconclusive: 0.156 µM
COP(=S)(OC)Oc1nc(Cl)c(Cl)cc1Cl,AC50,[3],inconclusive: 6.54 µM
same,AC50,[1],inconclusive: 25 µM
CC(C)C(=O)OCC(C)(C)C(OC(=O)C(C)C)C(C)C (stereo unspecified),AC50,[3],inconclusive: 0.0873 µM
same,AC50,[1],inconclusive: 25 µM
same,AC50,[5],inconclusive: 50 µM
CCc1cnc(C2=NC(C)(C(C)C)C(=O)N2)c(C(=O)O)c1 (stereo unspecified),AC50,[3],inconclusive: 25 µM

# Some of the entries above in another layout:
smiles | measurement | setting | value
CC1(C)C(C=C(Cl)Cl)C1C(=O)OC(C#N)c1ccc(F)c(Oc2ccccc2)c1 (stereo unspecified) | outcome | [2] | inactive
CCOC(=O)C(C)OC(=O)c1cc(Oc2ccc(C(F)(F)F)cc2Cl)ccc1[N+](=O)[O-] (stereo unspecified) | AC50 | [2] | inconclusive: 0.156 µM
